# From the supplement of paper PMC3682954
# “And” between values parts separate entries of the source, which are not always exact repeats. Identical values can stand only once. Counter-ions that a name gives are not always drawn. ± gives the standard deviation of the averaged measurements. This is one part of the list. Single values are uncertain, as repeats are few or missing.
# Tested on: RAW 264.7
# Test: HMGB1-induced TNF-alpha production relative to HMGB1-stimulated control; higher = more TNF-alpha secretion (less inhibition)
# Settings: stimulus: HMGB1 5 ug/ml, 18 h
# [1] = compound concentration: 1 ug/ml
compound,measurement,setting,value
CS(=O)(=O)c1ccc(C2=C(c3ccccc3)C(=O)OC2)cc1 [Rofecoxib],HMGB1-induced TNF-alpha production,compound concentration: 3 uM,82 ± 7%
CS(=O)(=O)c1ccc(C2=C(c3ccccc3)C(=O)OC2)cc1,HMGB1-induced TNF-alpha production,compound concentration: 3 uM,101 ± 4%
Cn1c(=O)c2[nH]cnc2n(C)c1=O [Aminophylline ethylenediamine],HMGB1-induced TNF-alpha production,compound concentration: 3 uM,85%
Cn1c(=O)c2[nH]cnc2n(C)c1=O [Aminophylline],HMGB1-induced TNF-alpha production,compound concentration: 3 uM,123 ± 8.4%
CN(C)CCC=C1c2ccccc2CCc2ccccc21 [Amitryptiline hydrochloride],HMGB1-induced TNF-alpha production,compound concentration: 3 uM,73.9%
CN(C)CCC=C1c2ccccc2CCc2ccccc21,HMGB1-induced TNF-alpha production,compound concentration: 3 uM,79.8%
CN(C)CCC=C1c2ccccc2CCc2ccccc21 [Amitriptyline hydrochloride],HMGB1-induced TNF-alpha production,compound concentration: 3 uM,74.9%
Cc1ccnc2c1NC(=O)c1cccnc1N2C1CC1 [Viramune],HMGB1-induced TNF-alpha production,compound concentration: 3 uM,100%
Cc1[nH]c(=O)c(C#N)cc1-c1ccncc1,HMGB1-induced TNF-alpha production,compound concentration: 3 uM,121%
Cc1[nH]c(=O)c(C#N)cc1-c1ccncc1 [Milrinone],HMGB1-induced TNF-alpha production,compound concentration: 3 uM,115 ± 24%
O=c1cccc2n1CC1CC2CN(CC(O)C=Nc2c3ccccc3nc3ccccc23)C1 (centres undefined),HMGB1-induced TNF-alpha production,[1],51.1%
CCOc1ccc2oc(=O)c(-c3ccc(O)cc3)c(C)c2c1 [6-Ethoxy-3(4'-hydroxyphenyl)-4-methylcoumarin],HMGB1-induced TNF-alpha production,[1],79.4%
O=C(Nc1ccccc1)c1ccccc1O,HMGB1-induced TNF-alpha production,compound concentration: 3 uM,72.8%
C=C1C(=O)[C@]23[C@H](CC[C@@H]1[C@@H]2O)[C@]12CO[C@@]3(O)[C@H](O)[C@H]1C(C)(C)CC[C@@H]2O,HMGB1-induced TNF-alpha production,compound concentration: 3 uM,20.6%
C=C1C[C@@]23CC[C@H]4[C@@](C)(CCC[C@@]4(C)C(=O)O[C@@H]4O[C@H](CO)[C@@H](O)[C@H](O)[C@H]4O)[C@@H]2CC[C@]1(O[C@@H]1O[C@H](CO)[C@@H](O)[C@H](O)[C@H]1O[C@@H]1O[C@H](CO)[C@@H](O)[C@H](O)[C@H]1O)C3 [Stevioside],HMGB1-induced TNF-alpha production,compound concentration: 3 uM,98.1%
OC[C@H]1O[C@@H](Oc2ccc3ccccc3c2)[C@H](O)[C@@H](O)[C@H]1O [2-Naphthyl-beta-D-galactopyranoside],HMGB1-induced TNF-alpha production,[1],82%
COCC1=C(C(=O)OC(C)OC(=O)OC(C)C)N2C(=O)[C@@H](NC(=O)/C(=N\OC)c3csc(N)n3)[C@H]2SC1 (some centres undefined),HMGB1-induced TNF-alpha production,compound concentration: 3 uM,100 ± 9.3%
"COc1cc(-c2oc3ccccc3c(=O)c2O)cc(OC)c1OC [3-Hydroxy-3',4',5'-trimethoxyflavone]",HMGB1-induced TNF-alpha production,[1],91.4%
CN(C)c1cc2c(Nc3ccc4c(cnn4Cc4ccccc4)c3)ncnc2cn1,HMGB1-induced TNF-alpha production,compound concentration: 3 uM,97.7%
CCN(CC)CCOC(=O)C(c1ccccc1)C1CCCCC1 (centres undefined),HMGB1-induced TNF-alpha production,compound concentration: 3 uM,88.3%
CCN(CC)CCOC(=O)C(c1ccccc1)C1CCCCC1 (centres undefined) [Drofenine hydrochloride],HMGB1-induced TNF-alpha production,compound concentration: 3 uM,67.5%
NC(=O)C(=O)O [Sodium Oxamate],HMGB1-induced TNF-alpha production,compound concentration: 3 uM,103%
COc1cc(Cc2cnc(N)nc2N)cc(OC)c1OC [Trimethoprim],HMGB1-induced TNF-alpha production,compound concentration: 3 uM,80.2 ± 5.6%
COc1cc(Cc2cnc(N)nc2N)cc(OC)c1OC,HMGB1-induced TNF-alpha production,compound concentration: 3 uM,89.9%
CC(C)(C)OC(=O)c1cc2cc3c4c(c2oc1=O)CCCN4CCC3 [Coumarin 338],HMGB1-induced TNF-alpha production,[1],89.4%
O=C(CCCN1CCC(O)(c2ccc(Br)cc2)CC1)c1ccc(F)cc1,HMGB1-induced TNF-alpha production,compound concentration: 3 uM,72.5%
O=C(CCCN1CCC(O)(c2ccc(Br)cc2)CC1)c1ccc(F)cc1 [Bromperidol],HMGB1-induced TNF-alpha production,compound concentration: 3 uM,45.1%
CNCC[C@H](Oc1cccc2ccccc12)c1cccs1,HMGB1-induced TNF-alpha production,compound concentration: 3 uM,86.2% and 109%
CNCC[C@H](Oc1cccc2ccccc12)c1cccs1 [Duloxetine],HMGB1-induced TNF-alpha production,compound concentration: 3 uM,100%
CC1CCC(C(C)C)C(O)C1 (centres undefined),HMGB1-induced TNF-alpha production,compound concentration: 3 uM,117%
"CCc1cc(=O)oc2cc(OC)c(OC)cc12 [6,7-Dimethoxy-4-ethylcoumarin]",HMGB1-induced TNF-alpha production,[1],90%
CC(=O)c1ccc2c(c1)N(CCCN1CCC(CCO)CC1)c1ccccc1S2 [Piperacetazine],HMGB1-induced TNF-alpha production,compound concentration: 3 uM,90%
CO[C@@]1(NC(=O)Cc2cccs2)C(=O)N2C(C(=O)O)=C(COC(N)=O)CS[C@@H]21 [Cefoxitin sodium salt],HMGB1-induced TNF-alpha production,compound concentration: 3 uM,109%
CO[C@@]1(NC(=O)Cc2cccs2)C(=O)N2C(C(=O)O)=C(COC(N)=O)CS[C@@H]21,HMGB1-induced TNF-alpha production,compound concentration: 3 uM,85.2%
N#CC(=C(/N)Sc1ccccc1N)/C(C#N)=C(/N)Sc1ccccc1N,HMGB1-induced TNF-alpha production,compound concentration: 3 uM,20.4%
NS(=O)(=O)c1cccc2c1c([N+](=O)[O-])cc1nc(O)c(O)nc12 [NBQX disodium],HMGB1-induced TNF-alpha production,compound concentration: 3 uM,105%
NC(N)=NCc1cccc(I)c1 [m-Iodobenzylguanidine hemisulfate],HMGB1-induced TNF-alpha production,compound concentration: 3 uM,108%
COc1cc2c(cc1OC)C(=O)C(CC1CCN(Cc3ccccc3)CC1)C2 (centres undefined) [Donepezil],HMGB1-induced TNF-alpha production,compound concentration: 3 uM,101%
COc1cc2c(cc1OC)C(=O)C(CC1CCN(Cc3ccccc3)CC1)C2 (centres undefined),HMGB1-induced TNF-alpha production,compound concentration: 3 uM,85.2%
CCCCC(CC)CN1CN(CC(CC)CCCC)CC(C)(N)C1 (centres undefined) [Hexetidine],HMGB1-induced TNF-alpha production,compound concentration: 3 uM,58.6%
CCCCC(CC)CN1CN(CC(CC)CCCC)CC(C)(N)C1 (centres undefined),HMGB1-induced TNF-alpha production,compound concentration: 3 uM,79%
CC(=O)NCCc1c[nH]c2ccc(O)cc12 [N-Acetyl-5-hydroxytryptamine],HMGB1-induced TNF-alpha production,compound concentration: 3 uM,87.8%
COc1cc(OC)c(C(=O)CCCN2CCCC2)c(OC)c1,HMGB1-induced TNF-alpha production,compound concentration: 3 uM,104 ± 26%
COc1cc(OC)c(C(=O)CCCN2CCCC2)c(OC)c1 [Buflomedil hydrochloride],HMGB1-induced TNF-alpha production,compound concentration: 3 uM,70.6%
O=c1ccc2ccc(O)c(O)c2o1 [Daphnetin],HMGB1-induced TNF-alpha production,compound concentration: 3 uM,91.7%
N#CC(c1ccc(Cl)cc1)c1c(Cl)cc(-n2ncc(=O)[nH]c2=O)cc1Cl (centres undefined) [Diclazuril],HMGB1-induced TNF-alpha production,compound concentration: 3 uM,85.9 ± 3.5%
O.O.O.O.O=C([O-])CC(O)(CC(=O)[O-])C(=O)[O-].[Li+].[Li+].[Li+],HMGB1-induced TNF-alpha production,compound concentration: 3 uM,90%
Cc1cc2c(C(C)C)c(O)c(O)c(C=Nc3ccc(O)c(Cl)c3)c2c(O)c1-c1c(C)cc2c(C(C)C)c(O)c(O)c(C=Nc3ccc(O)c(Cl)c3)c2c1O,HMGB1-induced TNF-alpha production,[1],46.6%
CCN1C(=O)NC(c2ccccc2)C1=O (centres undefined) [Ethotoin],HMGB1-induced TNF-alpha production,compound concentration: 3 uM,119%
COc1ccccc1N1CCN(CC(O)COc2cccc3ccccc23)CC1 (centres undefined) [Naftopidil],HMGB1-induced TNF-alpha production,compound concentration: 3 uM,76.4%
COc1ccccc1N1CCN(CC(O)COc2cccc3ccccc23)CC1 (centres undefined),HMGB1-induced TNF-alpha production,compound concentration: 3 uM,84% and 73%
COc1ccccc1N1CCN(CC(O)COc2cccc3ccccc23)CC1 (centres undefined) [Naftopidil dihydrochloride],HMGB1-induced TNF-alpha production,compound concentration: 3 uM,86.4 ± 6.1%
CN1CCCC(CC2c3ccccc3Sc3ccccc32)C1 (centres undefined) [Metixene hydrochloride],HMGB1-induced TNF-alpha production,compound concentration: 3 uM,58.5%
CN1CCC(=C2c3ccccc3CC(=O)c3sccc32)CC1 [Ketotifen],HMGB1-induced TNF-alpha production,compound concentration: 3 uM,85.1%
CN1CCC(=C2c3ccccc3CC(=O)c3sccc32)CC1,HMGB1-induced TNF-alpha production,compound concentration: 3 uM,96.7 ± 13%
CN1CCC(=C2c3ccccc3CC(=O)c3sccc32)CC1 [Ketotifen fumarate],HMGB1-induced TNF-alpha production,compound concentration: 3 uM,87.7 ± 7.6%
"CC1(C)O[C@@H]2[C@H](O1)[C@@H](CO)O[C@H]2n1ccc(=O)[nH]c1=O [2',3'-O-Isopropylideneuridine]",HMGB1-induced TNF-alpha production,[1],73.9%
COC(=O)c1ccccc1O [Methyl salicylate],HMGB1-induced TNF-alpha production,compound concentration: 3 uM,85.4%
COc1ccc2c(c1)N(C[C@H](C)CN(C)C)c1ccccc1S2 [Methotrimeprazine maleat salt],HMGB1-induced TNF-alpha production,compound concentration: 3 uM,94.9%
CC[C@H](CC[C@@H](C)[C@H]1CC[C@H]2[C@@H]3CC=C4C[C@@H](O)CC[C@]4(C)[C@H]3CC[C@]12C)C(C)C [beta-Sitosterol],HMGB1-induced TNF-alpha production,[1],72.9%
CCCN(CCC)C(=O)C(CCC(=O)O)NC(=O)c1ccccc1 (centres undefined) [Proglumide],HMGB1-induced TNF-alpha production,compound concentration: 3 uM,99.7 ± 17%
CCCN(CCC)C(=O)C(CCC(=O)O)NC(=O)c1ccccc1 (centres undefined),HMGB1-induced TNF-alpha production,compound concentration: 3 uM,86%
CN1CCc2ccccc2Cc2[nH]c3ccccc3c2CC1,HMGB1-induced TNF-alpha production,compound concentration: 3 uM,104%
CC(C)(Sc1cc(C(C)(C)C)c(O)c(C(C)(C)C)c1)Sc1cc(C(C)(C)C)c(O)c(C(C)(C)C)c1,HMGB1-induced TNF-alpha production,compound concentration: 3 uM,105%
CC(C)(Sc1cc(C(C)(C)C)c(O)c(C(C)(C)C)c1)Sc1cc(C(C)(C)C)c(O)c(C(C)(C)C)c1 [Probucol],HMGB1-induced TNF-alpha production,compound concentration: 3 uM,67.5%
Nc1ccc(-c2nc3ccc(-c4nc5ccc(N)cc5[nH]4)cc3[nH]2)cc1,HMGB1-induced TNF-alpha production,compound concentration: 3 uM,94.5%
CS(=O)(=O)CCNCc1ccc(-c2ccc3ncnc(Nc4ccc(OCc5cccc(F)c5)c(Cl)c4)c3c2)o1 [Lapatinib ditosylate],HMGB1-induced TNF-alpha production,compound concentration: 3 uM,104%
CS(=O)(=O)CCNCc1ccc(-c2ccc3ncnc(Nc4ccc(OCc5cccc(F)c5)c(Cl)c4)c3c2)o1 [Lapatinib],HMGB1-induced TNF-alpha production,compound concentration: 3 uM,73.7%
Cn1ccnc1S [Methimazole],HMGB1-induced TNF-alpha production,compound concentration: 3 uM,81.7 ± 11%
Cn1ccnc1S,HMGB1-induced TNF-alpha production,compound concentration: 3 uM,101 ± 4.9%
Nc1c(Br)cc(Br)cc1CN[C@H]1CC[C@H](O)CC1 [Ambroxol hydrochloride],HMGB1-induced TNF-alpha production,compound concentration: 3 uM,52.4%
Nc1c(Br)cc(Br)cc1CN[C@H]1CC[C@H](O)CC1 [Ambroxol],HMGB1-induced TNF-alpha production,compound concentration: 3 uM,90.9%
Nc1c(Br)cc(Br)cc1CN[C@H]1CC[C@H](O)CC1,HMGB1-induced TNF-alpha production,compound concentration: 3 uM,83.4%
Oc1ccc(Cl)c2cccnc12,HMGB1-induced TNF-alpha production,compound concentration: 3 uM,71.6%
CC(=O)NO,HMGB1-induced TNF-alpha production,compound concentration: 3 uM,77.5%
N[C@@H](Cn1ccc(=O)c(O)c1)C(=O)O [L-Mimosine from Koa hoale seeds],HMGB1-induced TNF-alpha production,compound concentration: 3 uM,111%
N[C@@H](Cn1ccc(=O)c(O)c1)C(=O)O [L-Mimosine],HMGB1-induced TNF-alpha production,[1],64.8%
CN(C)CC/C=C1\c2ccccc2CSc2ccccc21 [Dosulepin hydrochloride],HMGB1-induced TNF-alpha production,compound concentration: 3 uM,74.3%
CN1CCCN=C1COC(=O)C(O)(c1ccccc1)C1CCCCC1 (centres undefined),HMGB1-induced TNF-alpha production,compound concentration: 3 uM,73%
CC(C)(Oc1ccc(Cl)cc1)C(=O)O,HMGB1-induced TNF-alpha production,compound concentration: 3 uM,77.4%
CC(C)(Oc1ccc(Cl)cc1)C(=O)O [Clofibric acid],HMGB1-induced TNF-alpha production,compound concentration: 3 uM,79.5%
CCCCCCCCCCC[C@@H](C[C@@H]1OC(=O)[C@H]1CCCCCC)OC(=O)[C@H](CC(C)C)NC=O,HMGB1-induced TNF-alpha production,compound concentration: 3 uM,88.1 ± 22%
S=C(Nc1ccccc1)Nc1nccs1 [1-Phenyl-3-(2-thiazolyl)-2-thiourea],HMGB1-induced TNF-alpha production,compound concentration: 3 uM,110%
O=C1O[C@H](CO)[C@@H](O)[C@H](O)[C@H]1O,HMGB1-induced TNF-alpha production,compound concentration: 3 uM,87.6%
CCC(=O)OCC(=O)[C@@]1(OC(=O)CC)[C@H](C)CC2C3C([C@@H](O)C[C@@]21C)[C@@]1(C)C=CC(=O)C=C1C[C@H]3Cl (some centres undefined),HMGB1-induced TNF-alpha production,compound concentration: 3 uM,42.1%
CSc1ccc(C(=O)c2[nH]c(=O)[nH]c2C)cc1 [Enoximone],HMGB1-induced TNF-alpha production,compound concentration: 3 uM,99.8%
CC(C)(S)[C@@H](N)C(=O)O [Penicillamine],HMGB1-induced TNF-alpha production,compound concentration: 3 uM,115%
CC(C)(S)[C@@H](N)C(=O)O,HMGB1-induced TNF-alpha production,compound concentration: 3 uM,97.3%
Cc1cc(C(=O)NNCc2ccccc2)no1 [Isocarboxazid],HMGB1-induced TNF-alpha production,compound concentration: 3 uM,94.5%
